Experimental data published in ChEMBL document CHEMBL4316593 (Eur J Med Chem, 2019).
This continues a long series; more values of the same kind are listed elsewhere.

Key:
Type in all cases: cell-based
Conditions in all cases: U-87MG ATCC
[1] = Inhibition of RTK/PI3K/AKT/mTOR signaling in human U87 cells assessed as up regulation of PBX2 gene expression at cytotoxic IC50 measured after 48 hrs relative to control
[2] = Inhibition of RTK/PI3K/AKT/mTOR signaling in human U87 cells assessed as down regulation of LCP1 gene expression at cytotoxic IC50 measured after 48 hrs relative to control
[3] = Inhibition of RTK/PI3K/AKT/mTOR signaling in human U87 cells assessed as down regulation of PSMA7 gene expression at cytotoxic IC50 measured after 48 hrs relative to control
[4] = Inhibition of RTK/PI3K/AKT/mTOR signaling in human U87 cells assessed as up regulation of APOL6 gene expression at cytotoxic IC50 measured after 48 hrs relative to control
[5] = Inhibition of RTK/PI3K/AKT/mTOR signaling in human U87 cells assessed as down regulation of HAUS5 gene expression at cytotoxic IC50 measured after 48 hrs relative to control
[6] = Inhibition of RTK/PI3K/AKT/mTOR signaling in human U87 cells assessed as down regulation of SCARB2 gene expression at cytotoxic IC50 measured after 48 hrs relative to control
[7] = Inhibition of RTK/PI3K/AKT/mTOR signaling in human U87 cells assessed as up regulation of LSM14A gene expression at cytotoxic IC50 measured after 48 hrs relative to control
[8] = Inhibition of RTK/PI3K/AKT/mTOR signaling in human U87 cells assessed as down regulation of TAF5 gene expression at cytotoxic IC50 measured after 48 hrs relative to control
[9] = Inhibition of RTK/PI3K/AKT/mTOR signaling in human U87 cells assessed as up regulation of BTB domain containing 2 gene expression at cytotoxic IC50 measured after 48 hrs relative to control
[10] = Inhibition of RTK/PI3K/AKT/mTOR signaling in human U87 cells assessed as up regulation of KLHDC7B gene expression at cytotoxic IC50 measured after 48 hrs relative to control
[11] = Inhibition of RTK/PI3K/AKT/mTOR signaling in human U87 cells assessed as down regulation of ABL2 gene expression at cytotoxic IC50 measured after 48 hrs relative to control
[12] = Inhibition of RTK/PI3K/AKT/mTOR signaling in human U87 cells assessed as up regulation of transmembrane protein 53 gene expression at cytotoxic IC50 measured after 48 hrs relative to control
[13] = Inhibition of RTK/PI3K/AKT/mTOR signaling in human U87 cells assessed as down regulation of TDRD7 gene expression at cytotoxic IC50 measured after 48 hrs relative to control
[14] = Inhibition of RTK/PI3K/AKT/mTOR signaling in human U87 cells assessed as up regulation of pyrroline-5-carboxylate reductase 1 gene expression at cytotoxic IC50 measured after 48 hrs relative to control
[15] = Inhibition of RTK/PI3K/AKT/mTOR signaling in human U87 cells assessed as up regulation of protease, serine 16 gene expression at cytotoxic IC50 measured after 48 hrs relative to control
[16] = Inhibition of RTK/PI3K/AKT/mTOR signaling in human U87 cells assessed as up regulation of methyl-CpG binding domain protein 6 gene expression at cytotoxic IC50 measured after 48 hrs relative to control
[17] = Inhibition of RTK/PI3K/AKT/mTOR signaling in human U87 cells assessed as down regulation of SPRR2D gene expression at cytotoxic IC50 measured after 48 hrs relative to control
[18] = Inhibition of RTK/PI3K/AKT/mTOR signaling in human U87 cells assessed as down regulation of HIPK2 gene expression at cytotoxic IC50 measured after 48 hrs relative to control
[19] = Inhibition of RTK/PI3K/AKT/mTOR signaling in human U87 cells assessed as up regulation of solute carrier family 39 member 10 gene expression at cytotoxic IC50 measured after 48 hrs relative to control
[20] = Inhibition of RTK/PI3K/AKT/mTOR signaling in human U87 cells assessed as up regulation of general transcription factor IIi gene expression at cytotoxic IC50 measured after 48 hrs relative to control
[21] = Inhibition of RTK/PI3K/AKT/mTOR signaling in human U87 cells assessed as up regulation of LDHA gene expression at cytotoxic IC50 measured after 48 hrs relative to control
[22] = Inhibition of RTK/PI3K/AKT/mTOR signaling in human U87 cells assessed as up regulation of transmembrane protein 9 gene expression at cytotoxic IC50 measured after 48 hrs relative to control
[23] = Inhibition of RTK/PI3K/AKT/mTOR signaling in human U87 cells assessed as down regulation of YTHDC1 gene expression at cytotoxic IC50 measured after 48 hrs relative to control
[24] = Inhibition of RTK/PI3K/AKT/mTOR signaling in human U87 cells assessed as up regulation of solute carrier family 25 member 6 gene expression at cytotoxic IC50 measured after 48 hrs relative to control
[25] = Inhibition of RTK/PI3K/AKT/mTOR signaling in human U87 cells assessed as down regulation of SCYL2 gene expression at cytotoxic IC50 measured after 48 hrs relative to control
[26] = Inhibition of RTK/PI3K/AKT/mTOR signaling in human U87 cells assessed as up regulation of F2R gene expression at cytotoxic IC50 measured after 48 hrs relative to control
[27] = Inhibition of RTK/PI3K/AKT/mTOR signaling in human U87 cells assessed as down regulation of MOCS1 gene expression at cytotoxic IC50 measured after 48 hrs relative to control
[28] = Inhibition of RTK/PI3K/AKT/mTOR signaling in human U87 cells assessed as up regulation of VDAC1 gene expression at cytotoxic IC50 measured after 48 hrs relative to control
[29] = Inhibition of RTK/PI3K/AKT/mTOR signaling in human U87 cells assessed as down regulation of LRRC8A gene expression at cytotoxic IC50 measured after 48 hrs relative to control
[30] = Inhibition of RTK/PI3K/AKT/mTOR signaling in human U87 cells assessed as up regulation of bone morphogenetic protein receptor type 1A gene expression at cytotoxic IC50 measured after 48 hrs relative to control
[31] = Inhibition of RTK/PI3K/AKT/mTOR signaling in human U87 cells assessed as up regulation of CUEDC1 gene expression at cytotoxic IC50 measured after 48 hrs relative to control
[32] = Inhibition of RTK/PI3K/AKT/mTOR signaling in human U87 cells assessed as down regulation of ZSWIM8 gene expression at cytotoxic IC50 measured after 48 hrs relative to control

## CC(=O)C(=NNc1ccccc1C#N)C(C)=O
[1]
  log2FC: 1.6
[2]
  log2FC: -3.31
[3]
  log2FC: -0.949
[4]
  log2FC: 2.83
[5]
  log2FC: -1.09
[6]
  log2FC: -0.408
[7]
  log2FC: 0.488
[8]
  log2FC: -1.65
[9]
  log2FC: 0.787
[10]
  log2FC: 4.14
[11]
  log2FC: -0.507
[12]
  log2FC: 1.38
[13]
  log2FC: -0.805
[14]
  log2FC: 1.35
[15]
  log2FC: 1.26
[16]
  log2FC: 1.09
[17]
  log2FC: -7.91
[18]
  log2FC: -0.71
[19]
  log2FC: 1.5
[20]
  log2FC: 1.14
[21]
  log2FC: 2.27
[22]
  log2FC: 0.752
[23]
  log2FC: -0.578
[24]
  log2FC: 0.762
[25]
  log2FC: -0.631
[26]
  log2FC: 1.78
[27]
  log2FC: -0.992
[28]
  log2FC: 0.573
[29]
  log2FC: -0.689
[30]
  log2FC: 0.661
[31]
  log2FC: 0.583
[32]
  log2FC: -0.753
